Assay results published in US20050100554A1.
No constants are given. Whether binding was seen depends on the method and setting. Some results given as binding are weak or reduced against the parent protein; the word gives no strength.

By UniProt entry, the sequences of proteins in these tests, tags left out. Where a name states a change or a piece, a line headed by the entry shows the natural chain unless it says otherwise. Residues count along the entry.
UniProt Q9UK28, residues 25-342: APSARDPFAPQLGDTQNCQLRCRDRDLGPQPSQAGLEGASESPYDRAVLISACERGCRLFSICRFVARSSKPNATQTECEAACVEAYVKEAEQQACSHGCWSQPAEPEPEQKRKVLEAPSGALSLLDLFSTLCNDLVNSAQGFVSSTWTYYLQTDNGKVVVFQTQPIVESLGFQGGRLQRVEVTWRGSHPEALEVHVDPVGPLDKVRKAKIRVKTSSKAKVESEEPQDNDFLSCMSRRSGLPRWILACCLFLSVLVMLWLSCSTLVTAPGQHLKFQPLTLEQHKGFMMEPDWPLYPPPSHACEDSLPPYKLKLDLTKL
UniProt Q9UBU8: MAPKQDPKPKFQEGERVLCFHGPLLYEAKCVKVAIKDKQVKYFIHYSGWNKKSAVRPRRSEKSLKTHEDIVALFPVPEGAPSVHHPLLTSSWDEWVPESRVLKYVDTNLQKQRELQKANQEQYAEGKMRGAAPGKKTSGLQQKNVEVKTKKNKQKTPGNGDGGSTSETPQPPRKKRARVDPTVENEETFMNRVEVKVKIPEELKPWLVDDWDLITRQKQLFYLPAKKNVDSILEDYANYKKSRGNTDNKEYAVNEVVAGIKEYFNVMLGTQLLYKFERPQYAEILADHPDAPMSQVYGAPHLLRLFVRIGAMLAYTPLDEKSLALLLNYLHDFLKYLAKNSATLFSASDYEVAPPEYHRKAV
UniProt Q15582: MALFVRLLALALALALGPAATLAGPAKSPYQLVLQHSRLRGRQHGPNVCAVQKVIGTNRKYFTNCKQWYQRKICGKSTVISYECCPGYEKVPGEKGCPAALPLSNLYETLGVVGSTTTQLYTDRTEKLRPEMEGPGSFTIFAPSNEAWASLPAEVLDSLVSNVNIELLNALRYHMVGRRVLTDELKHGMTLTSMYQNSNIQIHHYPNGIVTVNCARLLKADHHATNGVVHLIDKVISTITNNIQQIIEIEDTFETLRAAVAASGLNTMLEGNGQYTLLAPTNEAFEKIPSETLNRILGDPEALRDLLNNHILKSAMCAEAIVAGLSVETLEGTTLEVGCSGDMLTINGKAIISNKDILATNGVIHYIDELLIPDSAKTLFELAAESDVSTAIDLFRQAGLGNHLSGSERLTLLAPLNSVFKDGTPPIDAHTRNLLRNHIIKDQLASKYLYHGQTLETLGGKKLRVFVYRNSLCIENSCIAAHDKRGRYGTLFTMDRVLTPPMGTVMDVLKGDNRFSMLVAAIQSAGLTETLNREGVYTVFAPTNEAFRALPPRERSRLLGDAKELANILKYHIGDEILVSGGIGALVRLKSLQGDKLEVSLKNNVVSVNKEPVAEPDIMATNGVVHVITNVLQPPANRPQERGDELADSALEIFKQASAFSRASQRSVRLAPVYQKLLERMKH
UniProt P17987: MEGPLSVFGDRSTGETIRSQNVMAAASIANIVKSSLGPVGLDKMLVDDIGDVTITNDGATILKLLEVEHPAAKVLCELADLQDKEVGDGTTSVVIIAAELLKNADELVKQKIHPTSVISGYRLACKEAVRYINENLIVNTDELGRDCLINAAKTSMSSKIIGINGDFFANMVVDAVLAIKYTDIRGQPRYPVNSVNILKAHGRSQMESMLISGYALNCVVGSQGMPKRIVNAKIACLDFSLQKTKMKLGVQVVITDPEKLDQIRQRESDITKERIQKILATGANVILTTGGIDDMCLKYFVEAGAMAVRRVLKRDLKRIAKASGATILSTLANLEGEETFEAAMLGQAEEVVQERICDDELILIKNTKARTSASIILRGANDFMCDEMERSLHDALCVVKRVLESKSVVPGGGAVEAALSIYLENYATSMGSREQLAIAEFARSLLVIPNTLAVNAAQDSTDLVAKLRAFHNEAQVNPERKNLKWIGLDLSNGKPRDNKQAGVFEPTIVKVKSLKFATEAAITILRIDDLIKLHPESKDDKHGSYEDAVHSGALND
UniProt Q6NV74: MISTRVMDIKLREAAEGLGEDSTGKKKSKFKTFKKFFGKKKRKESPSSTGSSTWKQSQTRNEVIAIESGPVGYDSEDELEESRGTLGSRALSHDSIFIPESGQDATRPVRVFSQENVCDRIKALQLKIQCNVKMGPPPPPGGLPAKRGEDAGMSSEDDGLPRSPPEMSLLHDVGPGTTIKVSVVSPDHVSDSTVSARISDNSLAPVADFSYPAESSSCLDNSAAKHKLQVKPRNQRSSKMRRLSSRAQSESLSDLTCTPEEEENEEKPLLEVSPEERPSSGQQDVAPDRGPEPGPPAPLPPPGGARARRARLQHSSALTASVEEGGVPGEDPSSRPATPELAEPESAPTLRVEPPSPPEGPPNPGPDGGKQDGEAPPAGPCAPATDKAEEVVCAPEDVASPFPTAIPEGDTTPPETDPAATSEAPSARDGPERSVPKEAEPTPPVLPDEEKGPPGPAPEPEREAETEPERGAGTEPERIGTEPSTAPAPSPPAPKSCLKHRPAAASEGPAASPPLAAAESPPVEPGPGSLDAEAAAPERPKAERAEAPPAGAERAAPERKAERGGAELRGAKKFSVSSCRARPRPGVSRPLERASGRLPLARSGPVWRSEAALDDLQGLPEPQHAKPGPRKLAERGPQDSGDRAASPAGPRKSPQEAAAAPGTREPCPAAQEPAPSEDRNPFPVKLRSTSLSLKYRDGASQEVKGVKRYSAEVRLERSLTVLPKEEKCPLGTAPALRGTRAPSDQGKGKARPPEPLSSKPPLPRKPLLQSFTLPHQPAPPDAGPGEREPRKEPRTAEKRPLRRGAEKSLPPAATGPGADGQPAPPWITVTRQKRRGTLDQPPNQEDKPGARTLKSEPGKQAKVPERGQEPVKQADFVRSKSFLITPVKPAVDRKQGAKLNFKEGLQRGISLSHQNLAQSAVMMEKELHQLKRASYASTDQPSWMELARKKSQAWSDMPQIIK
UniProt Q16854: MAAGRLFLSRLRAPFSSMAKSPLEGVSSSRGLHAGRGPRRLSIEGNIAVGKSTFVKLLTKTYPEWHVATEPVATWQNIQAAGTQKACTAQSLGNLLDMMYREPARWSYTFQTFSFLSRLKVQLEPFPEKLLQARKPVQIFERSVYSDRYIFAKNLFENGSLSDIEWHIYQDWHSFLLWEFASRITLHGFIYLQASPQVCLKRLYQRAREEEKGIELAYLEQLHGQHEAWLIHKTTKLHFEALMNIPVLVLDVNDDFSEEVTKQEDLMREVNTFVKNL

Key:
MIZF (human) [1] = target: T1, MIZF (human) (UniProt Q9BQA5); assay: Y2H; INT ID 190
T1 sequence: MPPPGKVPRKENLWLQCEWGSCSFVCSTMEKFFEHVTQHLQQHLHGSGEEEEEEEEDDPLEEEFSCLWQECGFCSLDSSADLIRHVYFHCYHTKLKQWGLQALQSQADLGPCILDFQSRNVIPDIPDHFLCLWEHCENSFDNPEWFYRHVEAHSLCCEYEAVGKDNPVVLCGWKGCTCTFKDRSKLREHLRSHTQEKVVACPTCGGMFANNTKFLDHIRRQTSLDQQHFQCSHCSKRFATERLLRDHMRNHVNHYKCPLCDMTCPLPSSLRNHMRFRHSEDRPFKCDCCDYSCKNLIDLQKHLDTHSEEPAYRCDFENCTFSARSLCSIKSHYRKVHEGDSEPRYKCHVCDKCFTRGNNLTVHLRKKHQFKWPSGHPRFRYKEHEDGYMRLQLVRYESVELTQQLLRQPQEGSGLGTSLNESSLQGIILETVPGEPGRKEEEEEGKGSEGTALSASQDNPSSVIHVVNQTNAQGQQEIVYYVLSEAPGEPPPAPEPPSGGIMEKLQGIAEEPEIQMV

BSMAP (human) = BSMAP (human) (UniProt Q9UK28); assay: Y2H; INT ID 149
MRG15 (human) = MRG15 (human) (UniProt Q9UBU8); assay: Y2H; INT ID 15
Prey142356 (human) = assay: Y2H; INT ID 413
Prey1053092 = assay: Y2H; INT ID 145
gbh_ac004503 (human) = gbh_ac004503 (human) (UniProt Q15582); assay: Y2H; INT ID 428
[2] = target: T2, Human papillomavirus 11 E4 (Human papillomavirus 11) (UniProt P20969); assay: Y2H; INT ID 2
T2 sequence: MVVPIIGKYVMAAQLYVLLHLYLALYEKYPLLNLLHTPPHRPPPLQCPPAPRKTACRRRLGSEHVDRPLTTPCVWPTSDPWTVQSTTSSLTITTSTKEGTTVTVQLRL

LOC51182 (human) [3] = target: T3, LOC51182 (human) (UniProt Q0VDF9); assay: Y2H; INT ID 586
T3 sequence: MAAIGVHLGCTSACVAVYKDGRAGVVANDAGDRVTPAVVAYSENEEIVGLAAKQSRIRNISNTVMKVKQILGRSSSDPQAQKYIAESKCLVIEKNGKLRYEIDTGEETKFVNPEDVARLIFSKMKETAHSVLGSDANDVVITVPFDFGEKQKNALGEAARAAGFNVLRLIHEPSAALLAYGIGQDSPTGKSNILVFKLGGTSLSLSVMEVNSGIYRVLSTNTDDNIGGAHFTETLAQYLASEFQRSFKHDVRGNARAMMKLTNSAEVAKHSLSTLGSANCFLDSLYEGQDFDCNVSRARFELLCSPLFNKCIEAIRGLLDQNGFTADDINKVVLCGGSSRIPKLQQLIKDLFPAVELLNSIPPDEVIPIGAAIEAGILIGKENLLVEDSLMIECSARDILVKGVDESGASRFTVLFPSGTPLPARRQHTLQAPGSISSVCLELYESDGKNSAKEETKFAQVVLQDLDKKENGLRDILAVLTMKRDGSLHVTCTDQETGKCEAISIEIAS

LOC51182 (human) [4] = target: T3, LOC51182 (human); assay: Y2H; INT ID 162
TCP-1 = TCP-1 (UniProt P17987); assay: Y2H (told in text)
gbh_d38112_5 (human) = assay: Y2H; INT ID 159
MIZF (human) [5] = target: T1, MIZF (human); assay: Y2H; INT ID 177
SBP2 (human) = target: T4, SBP2 (human) (UniProt Q96T21); assay: Y2H; INT ID 180
T4 sequence: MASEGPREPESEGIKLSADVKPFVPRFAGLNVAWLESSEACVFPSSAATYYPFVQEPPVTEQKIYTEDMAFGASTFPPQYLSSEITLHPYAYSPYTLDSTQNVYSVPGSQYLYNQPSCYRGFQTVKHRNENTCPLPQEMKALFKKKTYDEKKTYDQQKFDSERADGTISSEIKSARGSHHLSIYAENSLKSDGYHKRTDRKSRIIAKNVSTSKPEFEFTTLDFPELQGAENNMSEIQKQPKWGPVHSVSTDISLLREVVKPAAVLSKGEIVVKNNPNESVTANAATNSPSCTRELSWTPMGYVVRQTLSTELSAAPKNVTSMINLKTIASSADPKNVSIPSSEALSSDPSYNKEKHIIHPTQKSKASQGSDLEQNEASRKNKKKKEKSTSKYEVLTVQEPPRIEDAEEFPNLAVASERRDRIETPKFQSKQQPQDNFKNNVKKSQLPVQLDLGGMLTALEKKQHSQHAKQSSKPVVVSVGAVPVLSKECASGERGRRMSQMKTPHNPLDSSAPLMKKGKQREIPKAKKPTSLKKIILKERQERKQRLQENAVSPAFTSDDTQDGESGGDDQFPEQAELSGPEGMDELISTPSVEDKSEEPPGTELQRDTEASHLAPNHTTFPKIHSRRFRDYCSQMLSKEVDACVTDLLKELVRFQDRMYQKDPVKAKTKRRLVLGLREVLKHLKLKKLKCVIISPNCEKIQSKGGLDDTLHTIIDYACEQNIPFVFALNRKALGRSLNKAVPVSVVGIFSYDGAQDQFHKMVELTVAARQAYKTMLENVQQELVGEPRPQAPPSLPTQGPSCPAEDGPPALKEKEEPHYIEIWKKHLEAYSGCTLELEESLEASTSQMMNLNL

ZNF-U69274 (human) = target: T5, ZNF-U69274 (human) (UniProt O95625); assay: Y2H; INT ID 178
T5 sequence: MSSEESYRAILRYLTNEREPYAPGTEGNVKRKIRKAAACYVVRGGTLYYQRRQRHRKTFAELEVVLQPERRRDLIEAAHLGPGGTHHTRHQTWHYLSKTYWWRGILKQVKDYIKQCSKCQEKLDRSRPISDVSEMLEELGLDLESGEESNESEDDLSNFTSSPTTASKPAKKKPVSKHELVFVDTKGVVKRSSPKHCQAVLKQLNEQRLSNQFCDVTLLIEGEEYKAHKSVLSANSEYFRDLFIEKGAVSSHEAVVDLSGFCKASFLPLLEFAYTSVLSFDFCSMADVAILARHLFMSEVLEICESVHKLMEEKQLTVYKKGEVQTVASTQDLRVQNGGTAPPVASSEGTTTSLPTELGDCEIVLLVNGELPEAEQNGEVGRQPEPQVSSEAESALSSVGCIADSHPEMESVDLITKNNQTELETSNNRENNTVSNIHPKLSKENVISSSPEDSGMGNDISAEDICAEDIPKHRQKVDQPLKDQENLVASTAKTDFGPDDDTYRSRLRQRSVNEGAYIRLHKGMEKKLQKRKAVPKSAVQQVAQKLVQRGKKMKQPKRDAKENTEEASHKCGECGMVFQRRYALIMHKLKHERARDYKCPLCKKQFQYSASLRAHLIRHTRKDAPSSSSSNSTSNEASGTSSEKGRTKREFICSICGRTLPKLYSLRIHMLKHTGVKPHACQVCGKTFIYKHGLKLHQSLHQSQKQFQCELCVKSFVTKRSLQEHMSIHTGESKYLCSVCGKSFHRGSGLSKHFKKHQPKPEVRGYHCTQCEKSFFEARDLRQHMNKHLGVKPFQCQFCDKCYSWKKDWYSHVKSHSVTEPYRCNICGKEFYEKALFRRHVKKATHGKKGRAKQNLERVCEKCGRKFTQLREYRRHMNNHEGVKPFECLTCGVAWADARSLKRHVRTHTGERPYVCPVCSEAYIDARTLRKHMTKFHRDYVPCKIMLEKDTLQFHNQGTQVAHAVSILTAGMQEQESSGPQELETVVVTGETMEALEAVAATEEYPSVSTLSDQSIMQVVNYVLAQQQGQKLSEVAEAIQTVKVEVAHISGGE

[6] = target: Prey1620 (Homo sapiens (Human)) (UniProt Q9BQA5); assay: Y2H; INT ID 167
[7] = target: T6, Breakpoint cluster region 1 protein (BCR1) (human) (UniProt P11274); assay: Y2H; INT ID 165
T6 sequence (looked up): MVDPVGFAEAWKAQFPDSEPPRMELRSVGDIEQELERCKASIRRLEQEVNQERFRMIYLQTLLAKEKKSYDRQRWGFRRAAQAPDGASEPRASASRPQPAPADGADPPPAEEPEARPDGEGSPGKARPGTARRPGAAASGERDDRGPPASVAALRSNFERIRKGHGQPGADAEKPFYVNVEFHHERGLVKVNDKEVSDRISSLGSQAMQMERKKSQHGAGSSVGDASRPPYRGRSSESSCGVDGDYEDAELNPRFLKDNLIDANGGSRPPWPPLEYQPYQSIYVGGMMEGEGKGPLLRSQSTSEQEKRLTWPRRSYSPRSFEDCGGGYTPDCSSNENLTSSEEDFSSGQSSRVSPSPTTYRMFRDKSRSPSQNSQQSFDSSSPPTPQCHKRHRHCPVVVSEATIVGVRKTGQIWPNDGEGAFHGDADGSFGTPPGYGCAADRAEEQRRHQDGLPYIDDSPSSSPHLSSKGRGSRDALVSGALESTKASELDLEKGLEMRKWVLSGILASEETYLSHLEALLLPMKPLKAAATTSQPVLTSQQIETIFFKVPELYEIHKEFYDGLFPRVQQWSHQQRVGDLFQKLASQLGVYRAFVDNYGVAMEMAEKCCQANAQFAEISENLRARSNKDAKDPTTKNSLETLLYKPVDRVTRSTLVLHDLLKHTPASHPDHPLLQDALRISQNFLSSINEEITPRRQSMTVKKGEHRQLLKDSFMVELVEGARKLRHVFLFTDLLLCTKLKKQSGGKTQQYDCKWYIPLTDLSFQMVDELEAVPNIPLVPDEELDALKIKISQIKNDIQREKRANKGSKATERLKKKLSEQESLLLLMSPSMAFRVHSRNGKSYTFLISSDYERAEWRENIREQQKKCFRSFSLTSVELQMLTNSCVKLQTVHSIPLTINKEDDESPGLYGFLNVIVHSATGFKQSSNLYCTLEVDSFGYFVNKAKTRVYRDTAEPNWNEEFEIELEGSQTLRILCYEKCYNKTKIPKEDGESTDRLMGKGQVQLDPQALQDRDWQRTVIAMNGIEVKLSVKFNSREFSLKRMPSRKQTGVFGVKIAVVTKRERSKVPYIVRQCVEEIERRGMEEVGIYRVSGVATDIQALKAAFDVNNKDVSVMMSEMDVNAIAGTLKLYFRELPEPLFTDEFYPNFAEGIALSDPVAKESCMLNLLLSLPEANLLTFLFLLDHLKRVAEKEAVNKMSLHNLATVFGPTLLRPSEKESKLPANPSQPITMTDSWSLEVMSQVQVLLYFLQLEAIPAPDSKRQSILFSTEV

[8] = target: Prey1628 (Homo sapiens (Human)) (UniProt Q6NV74); assay: Y2H; INT ID 163

## Human papillomavirus 16 L2 (from UniProt P03107 1-473)
MIZF (human) [1]
  binding: binds

## Human papillomavirus 16 E2 (from UniProt P03120 1-365)
BSMAP (human)
  binding: binds

## Human papillomavirus 11 E2 (from UniProt P04015 1-367)
MRG15 (human)
  binding: binds

## Human Papillomavirus 1a E2 (from UniProt P03118 1-401)
Prey142356 (human)
  binding: binds

## Human papillomavirus 16 E1 (from UniProt P03114 1-649)
Prey1053092
  binding: binds

## Human Papillomavirus 1a E7 (from UniProt P06465 1-93)
gbh_ac004503 (human)
  binding: binds

## deoxyguanosine kinase (from UniProt Q16854 40-277) (enzyme)
[2]
  binding: binds

## Human Papillomavirus 1a E1 (from UniProt P03111 1-612)
LOC51182 (human) [3]
  binding: binds

## Human papillomavirus 16 E6 (from UniProt P03126 1-158)
LOC51182 (human) [4]
  binding: binds
TCP-1
  binding: binds
gbh_d38112_5 (human)
  binding: binds

## Human papillomavirus 16 E7 (from UniProt P03129 1-98)
MIZF (human) [5]
  binding: binds
SBP2 (human)
  binding: binds
ZNF-U69274 (human)
  binding: binds
[6]
  binding: binds
[7]
  binding: binds
[8]
  binding: binds
